# The list shows a part of the results. The main result of the screen is listed elsewhere. These columns were measured beside it and carry no call. The list favours compounds with an active or inconclusive main result. Words in brackets tell the shape of the fitted curve; partial curves, single points and poor fits give uncertain potencies.
# Assay: IkB Signaling
# Details: ABC-DLBCL IkBa-CBG/CBR dual luciferase ratio (green luciferase fused to IkBa over red control in OCI-Ly3 lymphoma cells), 4 h
# Summary of the method: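 Luminescence ratio of IκBα-fused green versus native red beetle luciferase in OCI-Ly3 cells, 4 h post-doxycycline with compound; red signal alone, scaled from basal (0%) to zero light (-100%), flagged nonspecific or cytotoxic effects.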
# [1] = measured here: control luc red channel unless noted
smiles,measurement,setting,value
CN(CC(=O)Nc1ccc2c(c1)OCCO2)S(=O)(=O)c1ccc(Br)s1,AC50,[1],"12.6 µM [falling, partial curve]"
Cc1nn(CCC(=O)Nc2ccc(Cl)cc2)c(C)c1S(=O)(=O)N1CCCCC1,AC50,[1],"12.6 µM [falling, single point]"
COc1ccc(-c2cc(C(=O)Nc3cc(C(F)(F)F)ccc3Cl)no2)cc1,AC50,[1],"1.26 µM [rising, full curve]"
COc1ccccc1Cn1cc(C(=O)c2ccccc2)c(=O)c2cc(OC)c(OC)cc21,AC50,[1],"31.6 µM [falling, single point]"
Cc1ccc2c(CC(=O)Nc3nc(C)cs3)coc2c1,AC50,measured here: IkB-luc green channel,"10 µM [falling, partial curve]"
same,AC50,measured here: control luc red channel,"7.94 µM [falling, full curve]"
COC(=O)[C@H](NC(=O)c1cc(-c2ccccc2)nc2ccccc12)c1ccccc1,AC50,[1],"12.6 µM [falling, partial curve]"
COc1ccccc1-c1cc2nc(C)c(CCC(=O)NCc3ccco3)c(C)n2n1,AC50,[1],"1 µM [falling, full curve]"
O=C(O)c1ccc(NC(=O)c2ccc(Cl)c(S(=O)(=O)N3CCCCCC3)c2)cc1,AC50,[1],"15.8 µM [falling, partial curve]"
COC(=O)c1ccc(NC(=O)C(C)Sc2nc(=O)cc(N)n2CCc2ccccc2)cc1 (stereo not drawn),AC50,[1],"20 µM [falling, partial curve]"
Cc1nc2c3ccccc3nc(NNC(=O)CCC(=O)O)n2n1,AC50,[1],"0.0316 µM [falling, full curve, poor fit]"
Cc1ccc(NC(=O)CN2C(=O)CCSc3ccccc32)c(C)c1,AC50,[1],"3.98 µM [rising, single point]"
COc1ccc(-c2csc(N(CC3CCCO3)C(=O)c3ccco3)n2)cc1 (stereo not drawn),AC50,[1],"39.8 µM [falling, single point]"
COc1ccc(CCNC(=O)c2ccc3c(c2)nc(C)n3-c2ccc(Br)cc2)cc1OC,AC50,[1],"3.16 µM [falling, partial curve]"
COc1ccccc1C(=O)Nc1nnc(SCc2cc(=O)c3ccccc3[nH]2)s1,AC50,[1],"25.1 µM [falling, partial curve]"
Fc1ccccc1N1CCN(c2nc3ccccc3n3nnnc23)CC1,AC50,[1],"0.501 µM [falling, full curve]"
O=C(c1ccc2c(c1)OCO2)[C@@H]1[C@@H]2C(=O)N(C3CCCCC3)C(=O)[C@@H]2C2c3ccccc3C=CN21 (stereo partly drawn),AC50,[1],"2 µM [falling, full curve]"
CCN(C(=O)c1ccc(C(=O)N(CC)c2ccccc2C)cc1)c1ccccc1C,AC50,[1],"20 µM [falling, single point]"

# Two records drawn at random from the list so far:
smiles,measurement,setting,value
Cc1ccc(NC(=O)CN2C(=O)CCSc3ccccc32)c(C)c1,AC50,[1],"3.98 µM [rising, single point]"
Fc1ccccc1N1CCN(c2nc3ccccc3n3nnnc23)CC1,AC50,[1],"0.501 µM [falling, full curve]"

# Source: PubChem BioAssay AID445 (National Center for Advancing Translational Sciences (NCATS), 2006)
